For test [1], the target named is human DLL4 (human) (UniProt Q9NR61). As to the kind of experiment: Biacore A100 sandwich epitope binning, human DLL4 held by immobilized 12.55. On the technique in general: SPR reads the build-up and loss of mass on a sensor chip optically.
Test [2] has the same target. As to the kind of experiment: Biacore A100 sandwich epitope binning, human DLL4 injected over immobilized antibody.
The target is the same in test [3]. As to the kind of experiment: Biacore A100 sandwich epitope binning, human DLL4 held by immobilized 12.73 or 12.08.
Test [4] has the same target. In words: Biacore A100 sandwich epitope binning, human DLL4 held by immobilized 012 BA1 or 012 BA2.

Amino acid sequences for entries named in this document (tags omitted). A change or cut given only in a name is not applied to a line headed by its entry.
UniProt Q9NR61: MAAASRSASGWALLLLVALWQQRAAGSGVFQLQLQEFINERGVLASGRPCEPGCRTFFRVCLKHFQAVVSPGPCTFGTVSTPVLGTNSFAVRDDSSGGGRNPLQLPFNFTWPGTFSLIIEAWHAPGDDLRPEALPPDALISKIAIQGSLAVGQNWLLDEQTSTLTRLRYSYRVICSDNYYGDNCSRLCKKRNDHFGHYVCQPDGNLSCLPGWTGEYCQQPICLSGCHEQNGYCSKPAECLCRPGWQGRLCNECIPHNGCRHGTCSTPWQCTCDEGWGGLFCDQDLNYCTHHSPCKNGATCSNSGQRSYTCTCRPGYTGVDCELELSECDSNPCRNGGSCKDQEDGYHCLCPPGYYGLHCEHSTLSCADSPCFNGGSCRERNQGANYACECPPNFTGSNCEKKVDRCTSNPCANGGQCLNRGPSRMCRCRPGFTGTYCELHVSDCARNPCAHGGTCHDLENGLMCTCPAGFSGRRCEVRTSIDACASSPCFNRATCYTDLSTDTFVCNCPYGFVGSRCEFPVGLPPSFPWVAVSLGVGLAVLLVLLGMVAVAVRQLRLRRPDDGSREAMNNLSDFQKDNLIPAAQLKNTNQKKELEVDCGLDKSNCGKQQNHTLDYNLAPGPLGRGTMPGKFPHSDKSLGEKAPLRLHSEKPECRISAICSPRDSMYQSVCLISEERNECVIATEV

Results are given in words; binding and its absence hold for the method and conditions named. Some binding calls cover weakened binding; strength is not graded here.

B1: BA1 (antibody, V domains shown)
VH: QVQLVQSGAEVKKPGASVKISCKASGYSFTAYYIHWVKQAPGQGLEWIGYISSYNGATNYNQKFKGRVTFTTDTSTSTAYMELRSLRSDDTAVYYCARDYDYDVGMDYWGQGTLVTVSS
VL: DIVMTQSPDSLAVSLGERATISCRASESVDNYGISFMKWFQQKPGQPPKLLIYAASNQGSGVPDRFSGSGSGTDFTLTISSLQAEDVAVYYCQQSKEVPWTFGGGTKVEIKR
Take B1: the binding entry in test [1], in test [2] and in test [3] was “binds” throughout.

B2: 12.73 (antibody, human IgG2, V domains shown)
VH: QVQLQQWGAGLLKPSETLSLTCAVSGGSFNDEYWSWLRQTPGKGPEWIGEIHESGKTNYNPSLKPRVTISQDAPNKQFSLRLESVTAADTALYYCARLAYRDRWYGAFDVWGQGTMVTVSS
VL: DIQLTQSPSSLSASVGDRVTITCQASHDITNYINWYQQKPGKAPKLLIYHTSKLQTGVPPRFSGGGSGTDFTLTISGLQPEDIATYYCQQFDNLLLTFGGGTKVDIKG
Regarding B2, the binding entry in test [4] was “binds”.

B3: 12.14 (antibody, human IgG2, V domains shown)
VH: EVQLVESGGGLVQPGGSLRLSCAASGFTFSDYAMSWVRQTPGKGLEWVSTISGSGGDTFYADSVKGRFTISRDNSKNTLYLQVNSLRAEDTAVYYCAKDKNRGAYADAFDWGQGTMVTVSS
VL: QPVLTQPTSLSASPGASASLTCTLRSDINVGTYRIYWYKQKPGSPPQYLLTYKSDTDKQQGSGVPSRFSGSKDASANAGILLISELQSDDEADYHCMVWHKSAPIFGGGTKVTVLG
Take B3: the binding entry in test [4] is reported as “binds”.

B4: 12.55 (antibody, human IgG2, V domains shown)
VH: EVQLVETGGGLVQPGGSLRLSCAASGFTFSDYAMSWVRQTPGKGLEWVSTISGSGGDTFYADSVKGRFTISRDNSKNTLYLQVNSLRAEDTAVYYCAKDKNRGAYADAFDIWGQGTMVTVSS
VL: QAVLTQPASLSASPGASASLTCTLRSDINVATYRIYWYKQKPGSPPQYLLTYKSDSDKQQGSGVPSRFSGSKDSSANAGILLISGLQSDDEADYHCMVWHKSAPIFGGGTKVTVLG
Take B4: in test [4], the binding result is on record as “binds”.

Values taken from WO2012092539A2 (dated 2012).
